Experimental data: PubChem BioAssay AID1224828 (NIAID, 2016)

Aim: 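Regulators linking TLR4 signalling to p65 nuclear translocation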 (primary screen)
Cells: mouse RAW264.7 G9 macrophage reporter cells (GFP-p65, Tnf promoter-mCherry)
Reagents: siRNA pool against mouse genes, 100 nM
Time to read-out: 2 days siRNA transfection, then 40 min LPS before fixation
Conditions: LPS (Salmonella minnesota R595) at 10 ng/ml
Read-out: 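Imaged p65 nuclear translocation ratio, normalised to the plate median, converted to robust z-scores and averaged across two replicates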
Reading the numbers: p65 translocation robust z-score: higher = more nuclear NF-kappaB p65 after LPS than the plate median; nuclear/cytoplasmic p65 ratio: higher = more nuclear NF-kappaB p65
Active means: 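Active if robust z is above 3.3 (negative regulators) or below -1.56, the Tlr4 control median (positive regulators); activity score 50 or more; control wells not called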
Meaning of the calls: active = hit (p65 shift raised or lowered); inactive = no clear change
This is one part, drawn at random, of about 17,000 reagents. 762 of them (4.5%) were called active. 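Active calls include both raised and lowered p65 entry, mostly lowered; wells with fewer than 50 cells lack a z-score.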 Raw values are not corrected between plates.

What did the screen give for Rps9?
p65 translocation robust z-score: 0.22; nuclear/cytoplasmic p65 ratio, rep 1: 1.76; nuclear/cytoplasmic p65 ratio, rep 2: 1.53; low cell count flag: enough cells to score; outcome: inactive

For Scnn1g, what does the deposit list?
p65 translocation robust z-score: 1.24; nuclear/cytoplasmic p65 ratio, rep 1: 1.61; nuclear/cytoplasmic p65 ratio, rep 2: 1.85; low cell count flag: enough cells to score; outcome: inactive

How did the screen score Batf2?
p65 translocation robust z-score: 0.56; nuclear/cytoplasmic p65 ratio, rep 1: 1.43; nuclear/cytoplasmic p65 ratio, rep 2: 1.54; low cell count flag: enough cells to score; outcome: inactive

Which result is listed for Or1e1?
p65 translocation robust z-score: -0.12; nuclear/cytoplasmic p65 ratio, rep 1: 1.51; nuclear/cytoplasmic p65 ratio, rep 2: 1.54; low cell count flag: enough cells to score; outcome: inactive

What did the screen give for Pcgf3?
nuclear/cytoplasmic p65 ratio, rep 1: 1.5; nuclear/cytoplasmic p65 ratio, rep 2: 1.4; low cell count flag: fewer than 50 cells per well; well left out of scoring; outcome: inactive

With Pex11g, what was measured?
p65 translocation robust z-score: -1.08; nuclear/cytoplasmic p65 ratio, rep 1: 1.29; nuclear/cytoplasmic p65 ratio, rep 2: 1.24; low cell count flag: enough cells to score; outcome: inactive

With Hspa4, how do the results read?
p65 translocation robust z-score: 0.74; nuclear/cytoplasmic p65 ratio, rep 1: 1.52; nuclear/cytoplasmic p65 ratio, rep 2: 1.26; low cell count flag: enough cells to score; outcome: inactive

For Agbl2, what does the deposit list?
p65 translocation robust z-score: 2.55; nuclear/cytoplasmic p65 ratio, rep 1: 1.64; nuclear/cytoplasmic p65 ratio, rep 2: 1.96; low cell count flag: enough cells to score; outcome: inactive

With Ndufc2, what does the deposit list?
p65 translocation robust z-score: 0.77; nuclear/cytoplasmic p65 ratio, rep 1: 1.51; nuclear/cytoplasmic p65 ratio, rep 2: 1.51; low cell count flag: enough cells to score; outcome: inactive

For Mbl1, how do the results read?
p65 translocation robust z-score: 0.82; nuclear/cytoplasmic p65 ratio, rep 1: 1.84; nuclear/cytoplasmic p65 ratio, rep 2: 1.67; low cell count flag: enough cells to score; outcome: inactive

For Gimap4, what was measured?
nuclear/cytoplasmic p65 ratio, rep 1: 1.47; nuclear/cytoplasmic p65 ratio, rep 2: 1.45; low cell count flag: fewer than 50 cells per well; well left out of scoring; outcome: inactive

Which result is listed for Atf7?
p65 translocation robust z-score: 1.22; nuclear/cytoplasmic p65 ratio, rep 1: 1.73; nuclear/cytoplasmic p65 ratio, rep 2: 1.86; low cell count flag: enough cells to score; outcome: inactive

A stretch taken from the entries so far, as a working copy:
Scnn1g | p65 translocation robust z-score = 1.24; nuclear/cytoplasmic p65 ratio, rep 1 = 1.61; nuclear/cytoplasmic p65 ratio, rep 2 = 1.85; low cell count flag = enough cells to score; outcome = inactive
Batf2 | p65 translocation robust z-score = 0.56; nuclear/cytoplasmic p65 ratio, rep 1 = 1.43; nuclear/cytoplasmic p65 ratio, rep 2 = 1.54; low cell count flag = enough cells to score; outcome = inactive
